{"sequences": {"note": "Protein sequences, listed by entry. Tags and fused reporters are not part of them. Lines headed by an entry give the natural chain unless they say otherwise; changes in a name come on top.", "UniProt Q9SJQ6": "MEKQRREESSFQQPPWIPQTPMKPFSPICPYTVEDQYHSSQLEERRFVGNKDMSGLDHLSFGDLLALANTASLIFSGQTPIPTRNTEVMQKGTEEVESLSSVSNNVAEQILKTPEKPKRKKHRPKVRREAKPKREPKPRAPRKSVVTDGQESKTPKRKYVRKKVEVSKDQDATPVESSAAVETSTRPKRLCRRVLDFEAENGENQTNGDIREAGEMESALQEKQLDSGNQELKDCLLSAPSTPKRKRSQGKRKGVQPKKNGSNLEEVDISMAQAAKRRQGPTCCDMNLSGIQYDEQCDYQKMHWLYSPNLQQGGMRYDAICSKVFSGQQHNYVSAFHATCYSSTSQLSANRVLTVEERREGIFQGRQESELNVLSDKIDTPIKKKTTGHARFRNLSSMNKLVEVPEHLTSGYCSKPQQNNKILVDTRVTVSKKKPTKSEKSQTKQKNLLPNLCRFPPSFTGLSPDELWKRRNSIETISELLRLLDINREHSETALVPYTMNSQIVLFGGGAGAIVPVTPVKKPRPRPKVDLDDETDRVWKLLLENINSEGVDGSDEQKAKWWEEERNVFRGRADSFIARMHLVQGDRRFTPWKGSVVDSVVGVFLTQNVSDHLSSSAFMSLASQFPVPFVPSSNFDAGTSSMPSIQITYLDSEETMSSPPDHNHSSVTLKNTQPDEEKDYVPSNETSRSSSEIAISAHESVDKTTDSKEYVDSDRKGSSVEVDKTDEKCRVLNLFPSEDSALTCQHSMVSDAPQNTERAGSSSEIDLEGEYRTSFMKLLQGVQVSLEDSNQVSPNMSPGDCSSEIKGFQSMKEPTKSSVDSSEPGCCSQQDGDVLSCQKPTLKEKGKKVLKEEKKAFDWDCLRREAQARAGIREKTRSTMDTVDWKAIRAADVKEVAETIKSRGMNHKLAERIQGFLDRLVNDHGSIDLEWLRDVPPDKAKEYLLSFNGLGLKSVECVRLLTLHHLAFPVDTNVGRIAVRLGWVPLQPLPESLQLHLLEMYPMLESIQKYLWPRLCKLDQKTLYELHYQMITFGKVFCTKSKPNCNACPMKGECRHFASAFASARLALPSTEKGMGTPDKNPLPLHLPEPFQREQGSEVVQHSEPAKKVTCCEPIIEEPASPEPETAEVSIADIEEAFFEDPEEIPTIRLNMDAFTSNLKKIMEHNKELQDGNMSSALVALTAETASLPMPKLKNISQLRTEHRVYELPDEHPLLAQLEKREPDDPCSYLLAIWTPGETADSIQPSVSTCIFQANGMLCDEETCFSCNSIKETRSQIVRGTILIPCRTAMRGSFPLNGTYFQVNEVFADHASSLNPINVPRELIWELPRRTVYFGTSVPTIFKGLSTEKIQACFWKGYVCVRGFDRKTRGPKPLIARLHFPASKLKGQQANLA"}, "source": "paper PMC4287435", "key": {"[1]": {"molecular_target": "T1, MBP-APE1L (Arabidopsis thaliana) (UniProt Q5XF07)", "T1 sequence (looked up)": "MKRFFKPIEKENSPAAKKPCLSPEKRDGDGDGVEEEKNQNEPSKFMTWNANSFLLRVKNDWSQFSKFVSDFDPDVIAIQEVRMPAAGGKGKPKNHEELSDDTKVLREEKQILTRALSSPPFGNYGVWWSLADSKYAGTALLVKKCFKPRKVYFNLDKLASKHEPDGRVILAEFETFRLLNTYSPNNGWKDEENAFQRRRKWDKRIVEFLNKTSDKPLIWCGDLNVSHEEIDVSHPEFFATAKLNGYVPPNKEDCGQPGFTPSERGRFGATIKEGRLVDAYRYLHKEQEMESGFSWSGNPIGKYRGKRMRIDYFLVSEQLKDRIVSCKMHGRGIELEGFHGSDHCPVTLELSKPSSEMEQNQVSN", "test": "EMSA", "conditions": "MBP-APE1L alone, no stable complex, smeared band next to free probe; 3'-phosphate on S39; 5'-phosphate on S40; 10 mM Tris-HCl pH 8.0, 1 mM DTT, 10 ug/ml BSA; 15 min at 25 C; 10 nM DNA; 0.2% agarose gel in 1x TAE at room temperature; recombinant protein; residues 1-364; protein details: MBP (pMAL-c2X); label: 5' Alexa Fluor on S39"}, "MBP-ROS1 + MBP-APE1L": {"tested_on": "MBP-ROS1 + MBP-APE1L", "test": "EMSA", "conditions": "75 nM MBP-ROS1, 1000 nM MBP-APE1L, higher molecular weight shift than with His-ROS1; 3'-phosphate on S39; 5'-phosphate on S40; 10 mM Tris-HCl pH 8.0, 1 mM DTT, 10 ug/ml BSA; 15 min at 25 C; 10 nM DNA; 0.2% agarose gel in 1x TAE at room temperature; recombinant protein; protein details: MBP,MBP (pMAL-c2X); label: 5' Alexa Fluor on S39"}, "[2]": {"molecular_target": "His-ROS1 (Arabidopsis thaliana) (UniProt Q9SJQ6)", "test": "EMSA", "conditions": "75 nM His-ROS1, 10 nM DNA, part of probe trapped in wells, 3'-phosphate on S39, 5'-phosphate on S40, 10 mM Tris-HCl pH 8.0, 1 mM DTT, 10 ug/ml BSA, 15 min at 25 C, 0.2% agarose gel in 1x TAE at room temperature, recombinant protein, protein details: His, label: 5' Alexa Fluor on S39"}, "His-ROS1 + MBP-APE1L": {"tested_on": "His-ROS1 + MBP-APE1L", "test": "EMSA, supershift", "conditions": "75 nM His-ROS1, 250-1000 nM MBP-APE1L, ternary complex, anti-MBP supershifts, anti-His does not; 3'-phosphate on S39; 5'-phosphate on S40; 10 mM Tris-HCl pH 8.0, 1 mM DTT, 10 ug/ml BSA; 15 min at 25 C; 10 nM DNA; 0.2% agarose gel in 1x TAE at room temperature; recombinant protein; protein details: His,MBP (pMAL-c2X); label: 5' Alexa Fluor on S39"}}, "note": "For some of these results: A weaker result is weaker than the reference pair of the same experiment. For some of these results: Where a protein sequence is shown, tags need not be part of it. For some of these results: The exact form of at least one protein or probe is not confirmed."}
{"sequence": "TCACGGGATCAATGTGTTCTTTCAGCTC / GGTCACGCTGACCAGGAATACC / GGTATTCCTGGTCAGCGTGACCGGAGCTGAAAGAACACATTGATCCCGTGA [1-nt gapped duplex (Al-28P + P30_51 / CGR)]", "values": [{"measurement": "binding result", "setting": "[1]", "result": "binds more weakly"}, {"measurement": "binding result", "setting": "MBP-ROS1 + MBP-APE1L", "result": "binds"}, {"measurement": "binding result", "setting": "[2]", "result": "binds"}, {"measurement": "binding result", "setting": "His-ROS1 + MBP-APE1L", "result": "binds"}]}
